This passage reports binding results from patent publication US20170182119A1.

Chains of the proteins cited; added tags and fusions are not shown. Lines headed by an entry give the natural chain unless they say otherwise; changes in a name come on top.
UniProt Q8MIP0: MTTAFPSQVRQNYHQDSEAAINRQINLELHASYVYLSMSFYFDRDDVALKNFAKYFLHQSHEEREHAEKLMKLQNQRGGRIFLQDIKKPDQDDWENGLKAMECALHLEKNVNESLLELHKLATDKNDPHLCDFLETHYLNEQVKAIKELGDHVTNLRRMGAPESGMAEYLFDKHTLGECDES
UniProt P02791: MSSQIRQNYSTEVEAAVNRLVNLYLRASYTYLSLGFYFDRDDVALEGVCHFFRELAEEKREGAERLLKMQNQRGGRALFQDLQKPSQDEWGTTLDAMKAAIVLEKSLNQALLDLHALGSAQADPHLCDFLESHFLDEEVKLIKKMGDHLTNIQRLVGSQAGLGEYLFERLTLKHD
UniProt Q13772: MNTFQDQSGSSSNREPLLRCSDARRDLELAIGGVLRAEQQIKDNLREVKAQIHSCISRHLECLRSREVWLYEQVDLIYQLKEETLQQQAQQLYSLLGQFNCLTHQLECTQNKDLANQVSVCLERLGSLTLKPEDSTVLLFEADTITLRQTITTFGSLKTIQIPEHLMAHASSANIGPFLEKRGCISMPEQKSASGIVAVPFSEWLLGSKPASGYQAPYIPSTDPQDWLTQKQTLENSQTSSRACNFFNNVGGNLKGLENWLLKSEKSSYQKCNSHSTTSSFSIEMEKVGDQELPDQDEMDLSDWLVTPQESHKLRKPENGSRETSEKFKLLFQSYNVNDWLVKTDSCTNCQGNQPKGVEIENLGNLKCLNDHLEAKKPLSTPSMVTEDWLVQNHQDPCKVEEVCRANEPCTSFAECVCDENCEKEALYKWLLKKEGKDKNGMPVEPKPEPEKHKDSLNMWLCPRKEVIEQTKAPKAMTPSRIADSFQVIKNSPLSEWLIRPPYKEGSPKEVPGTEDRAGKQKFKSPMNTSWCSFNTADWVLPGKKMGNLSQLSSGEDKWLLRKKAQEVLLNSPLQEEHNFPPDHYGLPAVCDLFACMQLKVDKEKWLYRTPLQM

For assay [1], the target named is T1, ferritin purified from horse spleen (mixture of FTH1 and FTL subunits) (horse) (UniProt Q8MIP0+P02791). Put plainly: GST pull-down of equine spleen ferritin with bead-bound GST-NCOA4 fragments, FTH1 immunoblot.
In assay [2] the target is T1, ferritin purified from horse spleen (mixture of FTH1 and FTL subunits) (horse). Put plainly: GST pull-down of ferritin with bead-bound GST-NCOA4 fragments, FTH1 immunoblot. In general terms: A western blot detects proteins with antibodies after separation by electrophoresis.
Assay [3] shares this target. Put plainly: GST pull-down with in vitro translated C-terminal His-GST-HA tagged NCOA4 constructs, FTH1 immunoblot.
Assay [4] concerns the target GST-GABARAPL2 (human). Kind of assay: GST pull-down of NCOA4-HA-FLAG from 293T lysate with GST-ATG8 proteins, HA immunoblot.

No constants are given. Whether binding was seen depends on the method and setting. Binding seen in cells or lysates may run through a third protein. Some results given as binding are weak or reduced against the parent protein; the word gives no strength.

Consider “GST-NCOA4 C-terminus (aa 235-614) (from UniProt Q13772 235-614)”, for which, in assay [1], the binding result is reported as “binds”.
Still for that read-out and setting: the entry for “GST-NCOA4 aa 235-560 (from UniProt Q13772 235-560)” is “binds”.
Take “GST-NCOA4 aa 383-522 (from UniProt Q13772 383-522)”: in assay [2], the binding result is on record as “binds”.
For “GST-NCOA4 aa 383-560 (from UniProt Q13772 383-560)”, in assay [1], the binding result is given as “binds”.
As for “GST-NCOA4 aa 475-522 (from UniProt Q13772 475-522)”, the binding entry in assay [2] is on record as “binds”.
With “NCOA4 aa 383-522, C-terminal His-GST-HA tagged (in vitro translated) (from UniProt Q13772 383-522)”, the binding result in assay [3] is recorded as “binds”.
Turning to “NCOA4 aa 475-522, C-terminal His-GST-HA tagged (in vitro translated) (from UniProt Q13772 475-522)”, the binding entry in assay [3] was “binds”.
As to “NCOA4-HA-FLAG (from UniProt Q13772 1-614)”, in assay [4], the binding result was “binds”.
